# Data reported in PubChem BioAssay (NCATS).
# Sequences of proteins named here, by UniProt entry; tags and fusion partners are left off. A change or cut given only in a name is not applied to a line headed by its entry.
# UniProt Q8WZA2: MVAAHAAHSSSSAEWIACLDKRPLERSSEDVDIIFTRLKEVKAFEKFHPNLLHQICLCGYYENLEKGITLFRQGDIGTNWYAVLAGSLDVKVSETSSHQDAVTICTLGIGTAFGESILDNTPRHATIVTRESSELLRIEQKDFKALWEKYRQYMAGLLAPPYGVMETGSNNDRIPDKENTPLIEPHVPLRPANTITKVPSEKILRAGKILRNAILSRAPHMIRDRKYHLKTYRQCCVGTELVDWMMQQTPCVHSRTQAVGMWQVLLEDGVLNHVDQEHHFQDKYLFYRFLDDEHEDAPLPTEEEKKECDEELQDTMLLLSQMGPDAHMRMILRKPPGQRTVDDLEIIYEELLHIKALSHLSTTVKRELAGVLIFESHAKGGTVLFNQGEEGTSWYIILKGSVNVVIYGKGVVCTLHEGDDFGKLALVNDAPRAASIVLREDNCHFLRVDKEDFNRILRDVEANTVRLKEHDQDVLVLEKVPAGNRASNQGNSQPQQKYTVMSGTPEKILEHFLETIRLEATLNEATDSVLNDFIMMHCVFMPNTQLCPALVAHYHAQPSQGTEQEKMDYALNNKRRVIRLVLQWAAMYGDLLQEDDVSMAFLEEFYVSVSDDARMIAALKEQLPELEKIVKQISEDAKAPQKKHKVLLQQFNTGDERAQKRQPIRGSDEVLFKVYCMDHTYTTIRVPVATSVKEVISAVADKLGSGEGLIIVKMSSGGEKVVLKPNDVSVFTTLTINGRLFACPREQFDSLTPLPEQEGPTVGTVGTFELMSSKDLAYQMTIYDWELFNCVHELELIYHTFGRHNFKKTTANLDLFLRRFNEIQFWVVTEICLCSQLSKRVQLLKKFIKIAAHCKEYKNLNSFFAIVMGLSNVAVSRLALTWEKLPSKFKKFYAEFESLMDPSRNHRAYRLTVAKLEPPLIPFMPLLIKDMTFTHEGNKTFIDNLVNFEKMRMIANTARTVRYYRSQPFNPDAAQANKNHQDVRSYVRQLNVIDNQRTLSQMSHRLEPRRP
# The inconclusive results got no clear call from the source; some entries with a clear call stand among them for comparison. Potencies beside an inconclusive call are fits to weak or partial responses and may not hold up. Activity calls are given as the source filed them. Calls follow the shape of the dose curve; as a rule, active = well fitted inhibition curve with a large enough effect; inconclusive = small, poorly fitted or top-dose-only effect; inactive = no such curve, though single readings can be large or run the other way.
# Target: Rap guanine nucleotide exchange factor 4 (Homo sapiens) (UniProt Q8WZA2)
# Experiment: Confirmatory qHTS for antagonist of cAMP-regulated guanine nucleotide exchange factor 4 (EPAC2) (AID 1645885); also: nearly all actives have a fitted effect of over 25% in size
# Conditions: EPAC2 Rap1B-BODIPY-GDP exchange fluorescence, biochemical; activity change, negative = inhibition: at 12.7 µM (top of the series) unless noted; series mostly up to 114 µM
# % is scaled to controls: 0 for no effect and ±100 for the full control effect; potency is read from the fitted curve at half-maximal effect.
Structure (SMILES),"activity change, negative = inhibition",Potency,outcome
CCN(CC)c1nc(C)nc2c1sc(=S)n2C,inactive: 9.53% [at 114 µM],,
C=CCN(CC=C)C(=O)COn1nnc2ccc(S(=O)(=O)N3CCOCC3)cc21,inactive: -19.7% [at 114 µM],,
COc1cccc(C(=O)N(Cc2cc3ccc(C)cc3nc2N(C)C)C2CC2)c1OC,,active: 17.5 µM,
Cc1onc(-c2c(Cl)cccc2Cl)c1C(=O)c1ccc(F)cc1,,"inconclusive: 21.3 µM [inhibitor, full curve]",
CC1(C)C(OC(=O)CCC(=O)O)CC[C@]2(C)C1CC[C@@]1(C)C2C(=O)C=C2[C@@H]3C[C@@](C)(C(=O)O)CC[C@]3(C)CCC21C (stereo not given in full),,active: 15.6 µM,
Cc1cc(C)c2sc(N(CCCN(C)C)C(=O)c3ccc(S(=O)(=O)N(C)C4CCCCC4)cc3)nc2c1,,"inconclusive: 95.3 µM [inhibitor, single point]",
C=CC(=C)CC(NC)c1ccccc1 (stereo not given),,active: 84.9 µM,
COc1ccc(C2CC2/C(=N/O)c2ccccn2)cc1 (stereo not given),,"inconclusive: 26.9 µM [inhibitor, partial curve, poor fit]",
Cc1ccc(NC(=O)COC(=O)c2ccccc2-c2nc3ccccc3s2)c(C)c1,,"inconclusive: 42.6 µM [inhibitor, full curve, poor fit]",
COc1ccc(-c2nc(C)ncc2-c2ccccc2)c(O)c1,inactive: -8.64%,,
Cc1ccc2nc(-c3ccc(NC(=O)c4ccco4)cc3)[nH]c2c1,inactive: -5.94%,,
O=C(CN1CCCC1)Nc1ccccc1Sc1ccc(Cl)cc1,,"inconclusive: 4.26 µM [inhibitor, partial curve, poor fit]",
CCOC(=O)c1c(NC(=O)/C=C/c2ccc3c(c2)OCO3)sc(C)c1CC,,"inconclusive: 37.9 µM [inhibitor, single point]",
Cc1cc2ccccc2cc1C(=O)c1ccccc1,,"inconclusive: 3.01 µM [inhibitor, partial curve]",
O=C1C=C(c2ccccc2Oc2ccccc2)C[C@@H](c2ccc(F)cc2)C1,,"inconclusive: 26.9 µM [inhibitor, partial curve]",
COc1cc(/C=C2/C(=O)NN(c3ccc(Cl)c(Cl)c3)C2=O)cc([N+](=O)[O-])c1O,,"inconclusive: 37.9 µM [inhibitor, full curve, poor fit]",
COc1cc(C(=O)N(Cc2cc3ccc(C)cc3nc2N(C)C)C2CC2)cc(OC)c1OC,,active: 17.5 µM,
O=C(CN1CCCCC1)Nc1cc(Cl)ccc1Oc1ccccc1,,"inconclusive: 19 µM [inhibitor, full curve]",
O=C1C[C@H]2C=CCc3cccc(c32)CN1Cc1ccc(Cl)cc1,,active: 44.1 µM,
Cc1nnc(SCc2ccccc2CSc2nnc(C)s2)s1,,"inconclusive: 8.49 µM [inhibitor, partial curve, poor fit]",

Structure (SMILES),"activity change, negative = inhibition",Potency,outcome
O=C1C(=Cc2ccco2)CCC1=Cc1ccco1,,active: 60.1 µM,
CN1/C(=C/C=C/c2n(C)c3cc([N+](=O)[O-])c([N+](=O)[O-])cc3[n+]2C)C(C)(C)c2ccccc21,,active: 42.6 µM,
O=C(CN1CCCCCC1)Nc1ccccc1Oc1ccccc1,,"inconclusive: 33.8 µM [inhibitor, full curve, poor fit]",
COc1cccc(OC)c1C(=O)Nc1ccccc1Sc1ccccc1,,,inactive
Cc1cccc(S(=O)(=O)NC(=O)C2(C)CCN2C(=O)Cc2cc(F)ccc2F)c1 (stereo not given),inactive: -4.6%,,
O=C1C=C(c2ccccc2)C(c2ccccc2)C1 (stereo not given),,"inconclusive: 30.1 µM [inhibitor, partial curve]",
O=C(c1ccco1)N(Cc1cccs1)c1ccc(F)cc1,inactive: 3.02%,,
Cc1ccc2c(c1)C(=O)CC(c1ccccc1)S2 (stereo not given),,"inconclusive: 5.36 µM [inhibitor, single point]",
CC(C)CC1C(=O)N(Cc2cn(CCC3OCCCO3)nn2)CCS(=O)(=O)N1Cc1ccc(-c2ccccc2)cc1 (stereo not given),inactive: -19.5% [at 114 µM],,
COc1ccccc1Oc1ncnc2c1oc1ccccc12,,"inconclusive: 6.01 µM [inhibitor, single point]",
Cc1ccc2nc(-c3ccccc3)cc(C(=O)N3CC(C)OC(C)C3)c2c1 (stereo not given),inactive: 60.4% [at 114 µM],,
CC(C)c1ccc(OCC(=O)Nc2cccc(C(=O)Nc3ccccc3C(=O)O)c2)cc1,,"inconclusive: 33.8 µM [inhibitor, partial curve]",
O=S(=O)(N/N=C/c1cccnc1)c1ccc(Cl)c(Cl)c1,inactive: -6.05%,,
Cc1cc(/C=C/c2ccnc3ccccc23)ccc1N(C)C,,"inconclusive: 39.3 µM [inhibitor, partial curve]",
COc1cc2c(cc1OC)C(COc1ccc(F)cc1)N(C(C)=O)CC2 (stereo not given),,"inconclusive: 23.9 µM [inhibitor, full curve, poor fit]",
CCOCCCn1c(=N)c(S(=O)(=O)c2ccccc2)cc2c(=O)n3cc(C)ccc3nc21,,"inconclusive: 37.9 µM [inhibitor, single point]",
O=C(CSc1nccn1C1CCCC1)Nc1cc(C(F)(F)F)ccc1Cl,inactive: -13.9%,,
COc1ccc(C2c3c(ncn(CCCO)c3=N)Oc3ccc4ccccc4c32)cc1 (stereo not given),inactive: -7.7%,,
Cc1cc(C)c(S(=O)(=O)N2CCCC2)c(C)c1,,"inconclusive: 16.9 µM [inhibitor, full curve]",
N#Cc1c(-c2ccccc2)nc(SCc2ccc(Cl)cc2)[nH]c1=O,,active: 33.8 µM,

# 2 of the compounds above, as tab-separated lines.
Structure (SMILES)	activity change, negative = inhibition	Potency	outcome
COc1cc2c(cc1OC)C(COc1ccc(F)cc1)N(C(C)=O)CC2 (stereo not given)		inconclusive: 23.9 µM [inhibitor, full curve, poor fit]	
CCOCCCn1c(=N)c(S(=O)(=O)c2ccccc2)cc2c(=O)n3cc(C)ccc3nc21		inconclusive: 37.9 µM [inhibitor, single point]	
